Data taken from the supplement of paper PMC12889115.
The list shows a part of the results. These are raw signals, not scaled to a control.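 In the initial screen, polymyxin B was used at a concentration that permeabilizes Salmonella's outer membrane but not its inner membrane. Maximum growth was set by DMSO wells with or without polymyxin B. Since plates varied, data were ranked per plate, and compounds giving the lowest OD600 advanced as hits.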

System: Salmonella enterica serovar Typhimurium SL1344
Assay: bacterial growth OD600 after 18 h with compound and polymyxin B; higher = more bacterial growth (less inhibition)
Conditions: 50 µM, Mueller-Hinton broth

Compound	bacterial growth OD600 (polymyxin B 0.75 µg/mL)	bacterial growth OD600 (polymyxin B 1 µg/mL)
CN1CCC(N2CCC(Oc3cccc(C(=O)NCCc4ccccc4)c3)CC2)CC1	0.966	–
Cc1ncc2c(c1CNC(=O)c1ccc3c(c1)OCO3)CCN(C(=O)CSc1ccccc1)C2	0.747	–
O=C1CCC(C(=O)N2CCc3c(Cl)cccc3C2)CN1Cc1ccccn1 (stereo not given)	–	1.3
COc1ccc(CC(=O)NC2CC(=O)N(CC3CCCCC3)C2)cc1 (stereo not given)	–	0.861
O=C(CCC1(Cc2cccs2)CCC(=O)N1)NCc1csc(-c2ccccc2)n1 (stereo not given)	0.831	–
O=C1CCC(C(=O)N2CCC(N3CCSCC3)CC2)CN1CCc1ccccn1 (stereo not given)	–	0.88
COc1ccc(-c2cn3c(C(=O)N(C)CCc4ccccn4)csc3n2)cc1F	0.835	–
Cc1c[nH]c(C(=O)N2CCC(C3CCN(Cc4cccnc4)CC3)C2)n1 (stereo not given)	0.877	–
CN(Cc1cccc2cnccc12)C(=O)c1cc(COc2ccc(F)cc2F)on1	–	0.493
CCOC(=O)C1(Cc2cccc(OC)c2)CCCN(S(=O)(=O)c2cc(C)cs2)C1 (stereo not given)	–	0.502
CCOC(=O)C1(Cc2cccc(OC)c2)CCN(Cc2nc3ccccc3[nH]2)CC1	–	0.826
Cc1cnc(-n2ncc(C(=O)NCCc3ccncc3)c2C2CC2)nc1-c1cccs1	0.815	–
CC(=O)NCCC1CCCCN1Cc1nc(C2(c3ccc(C)cc3)CCCC2)no1 (stereo not given)	–	0.019
CCOC(=O)C1(CC2CCCCO2)CCN(Cc2cccc(C(F)(F)F)c2)CC1 (stereo not given)	0.831	–
c1csc(CNc2nc(CN3CCc4ccccc4C3)nc3ccccc23)c1	0.003	–
COc1ccc(CCCN2C(=O)O[C@@H]3CN(S(=O)(=O)N4CCCC4)C[C@@H]32)cc1	–	0.909
CN(Cc1ncc[nH]1)C(=O)CCc1nnc(CCC2CCCCC2)o1	–	1.08
CCS(=O)(=O)c1ncc(CN2CCCCC2c2cccnc2)n1CCc1ccccc1 (stereo not given)	–	0.012
CCCCc1nc2cc(C(=O)NCC(O)COC)ccc2o1 (stereo not given)	–	0.844
Cc1ccc(C(=O)NC(C)c2cnn(-c3ccccc3C)c2C)cn1 (stereo not given)	–	0.879

In another format: two of the compounds above.

| Compound | bacterial growth OD600 (polymyxin B 0.75 µg/mL) | bacterial growth OD600 (polymyxin B 1 µg/mL) |
| --- | --- | --- |
| COc1ccc(-c2cn3c(C(=O)N(C)CCc4ccccn4)csc3n2)cc1F | 0.835 | – |
| CCOC(=O)C1(CC2CCCCO2)CCN(Cc2cccc(C(F)(F)F)c2)CC1 (stereo not given) | 0.831 | – |
